Values from PubChem BioAssay AID493246 (Drosophila RNAi Screening Center, 2011).
The deposit covers about 21,000 reagents; this is a random part of those with a known target gene and a result. In the full data, 429 (2%) were called active. 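Values are raw and not normalised between plates; calls rest on per-plate z-scores that were not deposited.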 Unmarked entries are inactive. Reagents against one gene are numbered here. Names joined by + are all predicted targets of the reagent. Not given: the amount of reagent, the time to read-out.

Screen: 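Identify essential fly genes by loss of cell viability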 (primary screen)
System: Drosophila Kc and S2R+ cells
Knock-down reagent: long dsRNA against Drosophila genes
Measurement: 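Raw, unnormalised count of remaining cells in each well; per-plate z-scores of cell number underlie the calls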
Reading the numbers: Kc cell number and S2R+ cell number: higher = more cells remaining
Active means: 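Active when the per-plate z-score of cell number is 3 or more in the direction of fewer cells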

no.	gene	reagent no.	Kc cell number, rep 1	Kc cell number, rep 2	S2R+ cell number, rep 1	S2R+ cell number, rep 2
1	Tlk (Tousled-like kinase)	1	1.20e6	1.28e6	7.41e5	8.68e5
2	Tlk (Tousled-like kinase)	2	1.07e6	1.20e6	6.35e5	7.62e5
3	CG13311	1	1.39e6	1.74e6	1.12e6	1.18e6
4	CG14011	1	1.47e6	1.31e6	1.07e6	1.24e6
5	Cda4 (Chitin deacetylase-like 4)	1	1.47e6	1.51e6	1.01e6	1.09e6
6	Cda4 (Chitin deacetylase-like 4)	2	1.43e6	1.45e6	1.04e6	1.09e6
7	Cda4 (Chitin deacetylase-like 4)	3	1.46e6	1.49e6	1.06e6	1.10e6
8	CG13793	1	1.65e6	1.67e6	1.14e6	1.33e6
9	CG12546	1	1.45e6	1.44e6	1.12e6	1.28e6
10	CG32845	1	1.46e6	1.40e6	9.79e5	1.16e6
11	CG31871	1	1.61e6	1.65e6	1.20e6	1.46e6
12	CG31871	2	1.60e6	1.61e6	1.25e6	1.42e6
13	Cpr62Ba (Cuticular protein 62Ba)	1	1.41e6	1.35e6	1.12e6	1.29e6
14	CG31141	1	1.09e6	1.36e6	1.06e6	1.05e6
15	CG32284	1	1.52e6	1.42e6	1.02e6	1.15e6
16	CG32814	1	1.38e6	1.47e6	1.07e6	1.13e6
17	alpha-Cat (alpha Catenin)	1	1.59e6	1.47e6	1.14e6	1.20e6
18	Rcc1 (Regulator of chromosome condensation 1)	1	1.34e6	1.42e6	1.20e6	1.11e6
19	ocm (over compensating males)	1	9.53e5	1.04e6	1.11e6	1.15e6
20	CngA (Cyclic nucleotide-gated ion channel subunit A)	1	1.42e6	1.50e6	9.33e5	1.02e6
21	CngA (Cyclic nucleotide-gated ion channel subunit A)	2	1.47e6	1.58e6	1.14e6	1.21e6
22	CG14377	1	1.40e6	1.40e6	1.18e6	1.33e6
23	Mdh2 (retired record)	1	1.35e6	1.36e6	1.06e6	1.11e6
24	Ktl (Kctd12-like)	1	1.63e6	1.81e6	1.24e6	1.27e6
25	cal1 (chromosome alignment defect 1)	1	1.47e6	1.62e6	1.09e6	1.17e6
26	CG13920	1	1.33e6	1.39e6	1.16e6	1.21e6
27	stwl (stonewall)	1	1.18e6	1.34e6	1.01e6	1.07e6
28	Echs1 (Enoyl-CoA hydratase, short chain 1)	1	1.75e6	1.93e6	1.42e6	1.52e6
29	Ppt2 (Palmitoyl-protein Thioesterase 2)	1	1.39e6	1.55e6	1.29e6	1.23e6
30	CG30389	1	1.41e6	1.47e6	8.32e5	9.76e5
31	CG30389	2	1.49e6	1.51e6	1.21e6	2.72e5
32	CG6277	1	1.40e6	1.39e6	9.97e5	1.10e6
33	CG9525	1	1.55e6	1.59e6	1.15e6	1.25e6
34	Pi3K68D (Phosphatidylinositol 3-kinase 68D)	1	1.43e6	1.51e6	1.21e6	1.19e6
35	mus304 (mutagen-sensitive 304)	1	1.34e6	1.40e6	1.26e6	1.41e6
36	CG17122	1	1.51e6	1.68e6	1.22e6	1.32e6
37	Pcl (Polycomblike)	1	1.28e6	1.36e6	1.15e6	1.24e6
38	CG34193	1	5.27e5		7.73e5	
39	cos (costa)	1	1.39e6	1.47e6	9.84e5	1.10e6
40	CG12204	1	1.53e6	1.61e6	1.04e6	1.20e6
41	FucTA (alpha1,3-fucosyltransferase A)	1	1.37e6	1.45e6	1.27e6	1.32e6
42	CG9171	1	1.35e6	1.46e6	5.35e5	8.15e5
43	Ir54a + sub	1	1.55e6	1.54e6	1.27e6	1.40e6
44	CG31036	1	1.52e6	1.55e6	1.02e6	1.04e6
45	CG31036	2	1.44e6	1.44e6	1.08e6	1.10e6
46	link	1	1.54e6	1.52e6	9.85e5	1.06e6
47	Cpr11B (Cuticular protein 11B)	1	5.34e5		8.22e5	
48	mRpL37 (mitochondrial ribosomal protein L37)	1	1.27e6	1.29e6	1.09e6	1.21e6
49	LpR2 (Lipophorin receptor 2)	1	1.08e6	1.35e6	1.04e6	1.05e6
50	LpR2 (Lipophorin receptor 2)	2	1.06e6	1.40e6	1.09e6	1.02e6
51	LpR2 (Lipophorin receptor 2)	3	4.92e5		7.66e5	
52	LpR2 (Lipophorin receptor 2)	4	1.49e6	1.52e6	9.41e5	1.05e6
53	CG13228	1	1.59e6	1.63e6	1.25e6	1.37e6
54	Sgs3 (Salivary gland secretion 3)	1	1.60e6	1.49e6	1.41e6	1.52e6
55	pHCl-2 (pH-sensitive chloride channel 2)	1	1.54e6	1.57e6	1.10e6	1.21e6
56	dnr1 (defense repressor 1)	1	5.59e5		9.01e5	
57	dnr1 (defense repressor 1)	2	1.52e6	1.58e6	1.17e6	1.28e6
58	Toll-6	1	1.71e6	1.79e6	1.28e6	1.42e6
59	CG7394	1	1.65e6	1.66e6	1.33e6	1.31e6
